# Laboratory results published in PMC10981675, “Structural basis for phage-mediated activation and repression of bacterial DSR2 anti-phage defense system” (Nature Communications, 2024).
# These are yes or no findings as the source states them, for the method shown. Some results given as binding are weak or reduced against the parent protein; the word gives no strength.
# T1: DSR2 D135A (Bacillus subtilis) (UniProt P0DXN8)
# T1 sequence: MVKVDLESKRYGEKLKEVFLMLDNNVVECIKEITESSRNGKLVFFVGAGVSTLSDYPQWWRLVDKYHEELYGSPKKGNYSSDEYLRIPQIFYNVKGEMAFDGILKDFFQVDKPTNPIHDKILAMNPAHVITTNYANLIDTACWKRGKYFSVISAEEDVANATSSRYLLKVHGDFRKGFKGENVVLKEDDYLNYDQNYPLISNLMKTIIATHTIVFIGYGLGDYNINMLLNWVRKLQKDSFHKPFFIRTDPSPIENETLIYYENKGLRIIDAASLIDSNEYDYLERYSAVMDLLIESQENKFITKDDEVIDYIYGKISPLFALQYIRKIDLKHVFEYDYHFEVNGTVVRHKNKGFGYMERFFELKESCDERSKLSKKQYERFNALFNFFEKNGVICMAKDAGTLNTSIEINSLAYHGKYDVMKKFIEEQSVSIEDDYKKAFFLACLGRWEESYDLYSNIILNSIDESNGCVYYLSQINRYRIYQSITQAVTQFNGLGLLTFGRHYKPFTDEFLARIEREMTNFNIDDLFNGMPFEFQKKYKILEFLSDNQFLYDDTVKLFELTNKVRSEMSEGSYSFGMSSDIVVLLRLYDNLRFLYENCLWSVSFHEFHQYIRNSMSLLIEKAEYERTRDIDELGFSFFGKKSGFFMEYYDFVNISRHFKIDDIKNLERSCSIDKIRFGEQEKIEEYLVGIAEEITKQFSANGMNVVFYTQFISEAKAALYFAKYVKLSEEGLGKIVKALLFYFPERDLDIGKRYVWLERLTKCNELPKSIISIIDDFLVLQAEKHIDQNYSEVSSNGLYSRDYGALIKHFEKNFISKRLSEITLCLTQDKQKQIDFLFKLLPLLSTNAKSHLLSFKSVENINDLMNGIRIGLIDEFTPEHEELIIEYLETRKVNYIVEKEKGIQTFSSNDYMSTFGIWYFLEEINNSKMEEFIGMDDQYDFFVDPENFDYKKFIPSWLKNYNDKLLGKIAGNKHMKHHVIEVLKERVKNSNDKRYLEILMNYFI
# T2: DSR2 Y282A (Bacillus subtilis) (UniProt P0DXN8)
# T2 sequence: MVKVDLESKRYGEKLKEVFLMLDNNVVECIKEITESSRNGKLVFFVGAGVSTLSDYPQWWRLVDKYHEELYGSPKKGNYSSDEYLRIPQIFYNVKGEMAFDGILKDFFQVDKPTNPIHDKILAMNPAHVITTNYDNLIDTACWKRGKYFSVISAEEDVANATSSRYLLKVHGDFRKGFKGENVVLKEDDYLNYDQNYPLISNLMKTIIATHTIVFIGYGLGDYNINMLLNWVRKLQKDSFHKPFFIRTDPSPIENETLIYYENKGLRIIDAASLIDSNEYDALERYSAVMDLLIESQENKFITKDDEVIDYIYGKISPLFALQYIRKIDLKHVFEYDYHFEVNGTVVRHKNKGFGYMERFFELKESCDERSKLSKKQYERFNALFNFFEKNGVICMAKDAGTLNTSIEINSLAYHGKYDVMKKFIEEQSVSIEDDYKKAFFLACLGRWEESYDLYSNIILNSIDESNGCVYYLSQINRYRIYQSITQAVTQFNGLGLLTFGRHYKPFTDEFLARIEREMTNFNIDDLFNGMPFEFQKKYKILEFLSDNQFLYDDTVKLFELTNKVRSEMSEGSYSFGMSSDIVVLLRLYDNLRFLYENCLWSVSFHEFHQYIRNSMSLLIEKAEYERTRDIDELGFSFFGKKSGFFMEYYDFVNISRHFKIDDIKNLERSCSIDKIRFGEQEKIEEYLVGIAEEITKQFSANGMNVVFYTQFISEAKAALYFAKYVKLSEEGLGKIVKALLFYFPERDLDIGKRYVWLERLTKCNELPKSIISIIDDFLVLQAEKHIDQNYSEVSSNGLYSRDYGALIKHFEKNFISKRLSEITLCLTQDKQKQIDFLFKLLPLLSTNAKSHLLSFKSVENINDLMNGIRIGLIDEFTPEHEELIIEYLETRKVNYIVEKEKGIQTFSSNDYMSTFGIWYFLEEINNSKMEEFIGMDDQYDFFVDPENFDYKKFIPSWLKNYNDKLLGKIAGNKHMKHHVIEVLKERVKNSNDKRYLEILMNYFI
# What was measured:
# [1] = molecular target: T1, DSR2 D135A (Bacillus subtilis); assay: tandem affinity co-purification + SEC; His-DSR2 and GST-tube made in E. coli; for wild type the cells expressing each were mixed before lysis; Ni-NTA, then glutathione resin, GST removed with HRV 3C, HiTrap Q, Superdex 200 Increase; mutants purified by the same method
# [2] = molecular target: T2, DSR2 Y282A (Bacillus subtilis); assay: as above
binder,measurement,setting,value
"tail tube protein of phage SPR, wild type (natural protein, tail tube protein of Bacillus phage SPR; domains D1 and D2; GST removal with HRV 3C is told for the DSR2-tube complex; Alone it runs as monomeric and oligomeric species on SEC; Only D1 is seen in the maps; also called phage tail tube protein; source: E. coli BL21 Star (DE3); purified alone, or co-purified with DSR2 (Ni-NTA, glutathione resin, HRV 3C cleavage, HiTrap Q, Superdex 200); not shown: …) MKTVIQDTADVYFKRKSDGKLVFTAEAQTASFSQAISEEKLRGGIGNKPLYILKSEKEINLTVKNAFFDLEWLAMTQGETIQEETKVKVFDREHGLIVDDTNKVTLKGKPVSDVTFYNKKGLTYKIAVSTDGTYTIPTAFAAAKDKLTAVYQIEKVGRRLAIKASKFSERYEVEYRTIAYNPDTEEVYSDIYIQFPNVSPSGEFEMSLENGNALAPEIKFEALADTDTDEMAVVIEASRDENTAAPVEDTTGSTQSSDLGGTTE",binding,[1],binds
same,binding,[2],binds
